The nature of the assay: IkB Signaling. To be noted: ABC-DLBCL IkBa-CBG/CBR dual luciferase ratio (green luciferase fused to IkBa over red control in OCI-Ly3 lymphoma cells), 4 h. The essentials: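 Curves were fitted separately to fusion (green), unfused (red) and ratio luminescence, then classed by r2, magnitude and activity. Cells: OCI-Ly3, 4 h compound plus doxycycline at 37C; 10 uM MG-132 defined full response.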
[1] abbreviates: measured here: control luc red channel unless noted.
Where [2] appears, read: measured here: IkB-luc green channel.
Setting [3] is: measured here: control luc red channel.

The values that follow come from PubChem BioAssay AID445 (National Center for Advancing Translational Sciences (NCATS), 2006).

As usually defined, the AC50 is the concentration giving half of the maximal activity seen.

The other results are listed elsewhere or left out. Shown are side measurements of this screen, not its main read-out; they come without a call. The list favours compounds with an active or inconclusive main result. Words in brackets tell the shape of the fitted curve; partial curves, single points and poor fits give uncertain potencies.

On to `CN(C)c1cc2c(cc1NS(=O)(=O)c1ccccc1)n(C)c(=O)n2C`, for which the AC50 under setting [1] is 0.00794 µM [rising, full curve, poor fit].
Regarding `Cc1cccc(N2CCN(C(=O)c3ccc(CS(=O)c4cccc(Cl)c4)o3)CC2)c1C` (centres undefined), the AC50 under setting [1] is 31.6 µM [falling, single point].
Same read-out and setting: as for `COCCn1c(C)cc(C(=O)CSc2nc(C)cc(C)c2C#N)c1C`, the figure is 31.6 µM [falling, partial curve].
On the same count and under the same terms, as for `COc1ccc(CN(C(=O)Nc2cccc(Cl)c2)c2ccccn2)cc1OC`, the figure is 0.0158 µM [rising, full curve]; as for `O=C(C1CC1)N1CCc2cc(Br)cc(S(=O)(=O)NC3CCCCC3)c21`, 39.8 µM [falling, single point].
For the compound `Cc1ccc(O)c(NC(=O)c2cc(-c3ccc4c(c3)OCO4)on2)c1`, the AC50 under setting [1] was 10 µM [falling, partial curve].
`COc1ccc(NC(=O)CCCSc2nc(-c3ccco3)cc(C(F)(F)F)n2)c(OC)c1`: the AC50 under setting [1] is 10 µM [falling, partial curve].
`COc1cccc(OCc2nc3ccccc3n2Cc2ccccc2C)c1`: under setting [1], the AC50 was 20 µM [falling, single point].
For `CCOc1ccc(N(CC)C(=O)C2CCN(S(=O)(=O)c3cccc4nonc34)CC2)cc1`, the AC50 under setting [1] was 12.6 µM [falling, partial curve].
In the case of `COc1ccc(-c2noc(N3CCC(C(=O)N4CCN(c5ccccn5)CC4)CC3)n2)cc1`, the AC50 under setting [1] was 10 µM [falling, partial curve].
Same read-out and setting: as for `COc1ccc(CCC(=O)NC2CC(=O)N(c3cccc(F)c3)C2)cc1` (centres undefined), the figure is 1 µM [rising, full curve, poor fit]; as for `Cc1ccc(-n2nc(C)c3c(C)cc(=O)n(CC(=O)N4CCCc5ccccc54)c32)cc1`, 25.1 µM [falling, single point]; as for `Cc1ccc(NC(=O)c2c(C)oc3ncnc(N4CCCCC4)c23)cc1Cl`, 25.1 µM [rising, partial curve, poor fit].
On the same count and under the same terms, as for `O=C(Cc1ccc(Cl)cc1)Nc1nnc2n1CCS2`, the figure is 0.316 µM [falling, full curve, poor fit]; as for `COc1ccc(NC(=O)c2cc3ccccn3n2)cc1`, 7.94 µM [falling, partial curve].
The same measure, in the same setting: as for `CCOc1ccc(N(C)C(=O)C2CCN(S(=O)(=O)c3ccc4c(c3)CCCN4C(C)=O)CC2)cc1`, the figure is 39.8 µM [falling, single point]; as for `CCC(Sc1nc2ccncc2[nH]1)C(=O)Nc1ccc(F)cc1` (centres undefined), 3.16 µM [falling, full curve].
Take `O=C(OCC(=O)N1CCN(C(=O)c2ccco2)CC1)c1cn(-c2ccccc2)nc1-c1ccccc1`: under setting [1], the AC50 was 31.6 µM [falling, single point].
Take `Cc1cc(C)cc(NC(=O)C(NS(=O)(=O)c2cccc3nsnc23)c2ccccc2)c1` (centres undefined): the AC50 under setting [1] was 25.1 µM [falling, partial curve].
With `Cc1ccc(Cn2cnc3c(oc4ccccc43)c2=O)cc1`, under setting [1], the AC50 is 1 µM [rising, single point].
Take `OC[C@@H]1O[C@@H](n2cnc3c(NC4CCCC4)ncnc32)[C@H](O)[C@H]1O`: the AC50 under setting [1] is 39.8 µM [falling, single point].
Still for that read-out and setting: as for `COc1ccc2nc(NC(=O)c3ccoc3C)sc2c1`, the figure is 2.51 µM [falling, full curve]; as for `CCOC(=O)N1CCN(C(=O)c2ccc3c(c2)N(Cc2cc(C)ccc2C)C(=O)c2ccccc2S3=O)CC1` (centres undefined), 15.8 µM [falling, partial curve]; as for `CC(=O)Nc1cccc(C(=O)Nc2ccccc2C(=O)O)c1`, 7.94 µM [falling, partial curve].
For `CCCCOc1nnc(-c2ccc(OCC)cc2)c2ccccc12`, the AC50 under setting [1] was 31.6 µM [falling, partial curve].
Consider `O=C1SC(Nc2ccc(Cl)cc2)C(=O)N1Cc1ccccc1` (centres undefined), for which the AC50 under setting [1] was 3.16 µM [rising, partial curve] [measured here: IkB-luc green channel].
The same measure, in the same setting: as for `CCCc1cc(=O)n2[nH]c(NCc3ccc(CC)cc3)nc2n1`, the figure is 15.8 µM [falling, partial curve]; as for `O=C1c2[nH]nc(-c3ccccc3)c2C(c2ccccc2)N1c1cccc(C(F)(F)F)c1` (centres undefined), 15.8 µM [falling, partial curve]; as for `Cc1ccc(C(=O)CSc2nc(C)cc(SCc3nnc(-c4ccccc4)o3)n2)cc1`, 0.126 µM [falling, full curve].
The same measure, in the same setting: as for `Cc1c(Cl)cccc1Nc1nc(N)nc(CSc2nc3ccccc3s2)n1`, the figure is 1 µM [rising, partial curve]; as for `Cc1ccc2oc(C(=O)Nc3ccc(S(=O)(=O)Nc4onc(C)c4C)cc3)cc(=O)c2c1`, 10 µM [falling, single point].
On to `CCc1ccc(CNc2ccc(O)cc2)cc1`, for which the AC50 under setting [2] is 20 µM [rising, partial curve] and the AC50 under setting [3] is 20 µM [falling, partial curve, poor fit].
As for `Cc1ccc(NC(=O)CCCn2c3ccccc3c(=O)c3cc(C)ccc32)c(Br)c1`, under setting [1], the AC50 was 7.94 µM [falling, partial curve].
For `CC1CCN(S(=O)(=O)c2ccc3c(c2)N(CC(=O)NCCc2ccc(Cl)cc2)C(=O)CO3)CC1`, the AC50 under setting [1] is 12.6 µM [falling, partial curve].
On to `CCOC(=O)c1c(C)[nH]c(C)c1S(=O)(=O)N1CCC(C(=O)N2CCN(c3cc(C)ccc3C)CC2)CC1`, for which, under setting [1], the AC50 was 0.126 µM [falling, full curve, poor fit].
Regarding `O=C(CSc1ncc(S(=O)(=O)c2ccc(Cl)cc2)c(=O)[nH]1)Nc1ccc2c(c1)OCCO2`, under setting [1], the AC50 is 15.8 µM [falling, partial curve].
In the case of `CCCC(=O)Nc1nnc(SCc2cc(=O)c3ccc(C)cc3[nH]2)s1`, the AC50 under setting [1] was 25.1 µM [falling, single point].
`COC(=O)c1cc(N2C(=O)C3C(C2=O)C2(C)C=CC3(C)O2)ccc1Cl` (centres undefined): the AC50 runs as follows: under setting [2], 5.01 µM [falling, full curve]; under setting [3], 3.16 µM [falling, full curve].
For `O=C(c1ccc(S(=O)(=O)NCC2CCCO2)cc1)N1CCc2ccccc21` (centres undefined), under setting [1], the AC50 is 10 µM [falling, partial curve].
Still for that read-out and setting: as for `Nc1c(C(=O)NCc2ccc3c(c2)OCO3)c2nc3ccccc3nc2n1CCCN1CCOCC1`, the figure is 12.6 µM [falling, partial curve]; as for `Cc1ccc(C2CC(C(F)F)n3ncc(C(=O)Nc4cnn(Cc5ccccc5C)c4)c3N2)cc1` (centres undefined), 12.6 µM [falling, partial curve].
For `COc1ccc(-c2nc3ccc(NS(=O)(=O)c4ccccc4)cc3o2)cc1`, the AC50 under setting [1] was 39.8 µM [falling, single point].
Still for that read-out and setting: as for `C=CCC(=O)OCC(=O)Nc1ccc(Oc2ccccc2)cc1`, the figure is 12.6 µM [falling, partial curve].
The same measure, in the same setting: as for `Cc1cccc(-c2nnc3n(CCc4ccccc4)c(=O)c4ccccc4n23)c1`, the figure is 20 µM [falling, single point]; as for `Cc1ccc(NC(=O)c2sc(-n3nc(C)c(Cc4ccc(Cl)cc4)c3C)nc2C)cc1`, 12.6 µM [falling, partial curve].
On the same count and under the same terms, as for `Cc1ccc(C)c(NC(=O)N2CCN(C)c3ncccc32)c1`, the figure is 7.94 µM [rising, single point]; as for `Oc1ccc(O)cc1`, 5.01 µM [falling, partial curve, poor fit] [measured here: IkB-luc green channel]; as for `CCN(Cc1ccccc1)C(=O)Cn1c(=O)n(-c2ccc(OC)cc2OC)c(=O)c2c(C)c(C)sc21`, 31.6 µM [falling, single point].
On to `CCCCn1c2ccccc2c2nnc(SCC(=O)Nc3ccc(NC(C)=O)cc3)nc21`, for which the AC50 under setting [1] is 0.00794 µM [rising, full curve, poor fit].
`O=C(O)CCCC(=O)Nc1nc(-c2ccccc2)cs1`: under setting [1], the AC50 was 0.316 µM [falling, full curve].
Regarding `COc1ccc(-c2noc(CSc3nnc(Cc4ccccc4)n3-c3cccc(C)c3)n2)cc1OC`, the AC50 under setting [1] was 15.8 µM [falling, partial curve].
On the same count and under the same terms, as for `Cc1oc2ccc(O)c(CN(C)Cc3ccccc3)c2c1C(=O)Nc1cccc(Cl)c1C`, the figure is 7.94 µM [falling, partial curve]; as for `O=C(Nc1onc2c1CCCC2)c1ccc(Cl)cc1`, 0.251 µM [rising, full curve]; as for `CCc1nc2nc(C)cc(Nc3ccc(Br)cc3F)n2n1`, 31.6 µM [falling, single point].
Consider `CCOC(=O)N1CCN(c2ccc(C(=O)c3cccc(F)c3)cc2)CC1`, for which the AC50 under setting [1] is 12.6 µM [falling, partial curve].
Same read-out and setting: as for `Cc1ccccc1NC(=O)c1c2c(nc3ccccc13)C(=O)N(C1CCCCC1)C2`, the figure is 10 µM [falling, partial curve].
For `CC1(C)Cc2c(sc3ncnc(N)c23)CO1`, the AC50 under setting [1] was 25.1 µM [falling, single point] [measured here: IkB-luc green channel].
As to `COc1ccccc1-c1cc(C(F)(F)F)nc(S(=O)(=O)CCCC(=O)Nc2cc(C)ccc2O)n1`, under setting [1], the AC50 was 3.16 µM [falling, partial curve].
Turning to `Cc1ccc2c(=O)c(C(=O)c3ccc(F)cc3)cn(CC(=O)NC3CCCCC3)c2n1`, the AC50 under setting [1] was 25.1 µM [falling, single point].
Still for that read-out and setting: as for `COc1cccc(OCCSc2nc(C)c(Cc3ccccc3)c(=O)[nH]2)c1`, the figure is 10 µM [falling, partial curve].
Same read-out and setting: as for `Cc1ccc(N(C)C(=O)C2CCN(S(=O)(=O)c3c(C)noc3/C=C/c3c(C)cc(C)cc3C)CC2)cc1`, the figure is 12.6 µM [falling, partial curve].
Regarding `COc1ccc(NC(=O)CCCN2C(=O)CCn3nc(-c4cn(C)c5ccccc45)cc32)cc1OC`, the AC50 under setting [1] was 25.1 µM [falling, partial curve].
